Consider one substance from PMC8636640.

The chains behind the UniProt entries cited, without tags or fusion partners.
UniProt Q5T2D3: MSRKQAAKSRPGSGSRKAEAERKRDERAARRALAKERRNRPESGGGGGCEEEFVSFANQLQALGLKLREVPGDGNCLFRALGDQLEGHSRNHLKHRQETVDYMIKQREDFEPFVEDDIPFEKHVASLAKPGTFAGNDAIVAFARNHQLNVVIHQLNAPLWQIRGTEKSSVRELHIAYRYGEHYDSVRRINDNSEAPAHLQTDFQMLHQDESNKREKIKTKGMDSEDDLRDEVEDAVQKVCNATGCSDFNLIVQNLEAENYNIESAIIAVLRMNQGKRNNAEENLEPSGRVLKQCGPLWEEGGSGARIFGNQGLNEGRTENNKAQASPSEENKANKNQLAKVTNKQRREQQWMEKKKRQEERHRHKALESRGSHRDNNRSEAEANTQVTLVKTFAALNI
UniProt O00571: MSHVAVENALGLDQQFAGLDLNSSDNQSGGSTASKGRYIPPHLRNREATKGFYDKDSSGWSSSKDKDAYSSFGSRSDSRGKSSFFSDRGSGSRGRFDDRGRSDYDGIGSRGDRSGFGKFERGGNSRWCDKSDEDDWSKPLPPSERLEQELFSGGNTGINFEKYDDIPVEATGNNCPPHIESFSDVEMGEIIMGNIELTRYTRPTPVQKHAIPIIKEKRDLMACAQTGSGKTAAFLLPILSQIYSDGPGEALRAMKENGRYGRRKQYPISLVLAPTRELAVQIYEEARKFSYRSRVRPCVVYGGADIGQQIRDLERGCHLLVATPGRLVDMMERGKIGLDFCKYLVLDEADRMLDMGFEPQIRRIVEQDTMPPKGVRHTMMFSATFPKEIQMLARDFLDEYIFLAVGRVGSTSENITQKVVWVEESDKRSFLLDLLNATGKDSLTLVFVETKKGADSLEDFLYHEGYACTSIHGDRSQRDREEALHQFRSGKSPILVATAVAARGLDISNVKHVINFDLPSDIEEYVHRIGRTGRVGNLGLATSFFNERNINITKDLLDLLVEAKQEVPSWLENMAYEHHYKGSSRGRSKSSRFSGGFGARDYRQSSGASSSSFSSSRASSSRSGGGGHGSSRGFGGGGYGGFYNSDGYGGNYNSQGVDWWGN

Results are given in words; binding and its absence hold for the method and conditions named. Binding seen in cells or lysates may run through a third protein. These calls come from enrichment with a bait or labelling near it, and not all partners need be listed.

The test addresses OTU domain-containing protein 3 (OTUD3), endogenous (human (endogenous in KYSE180)) (UniProt Q5T2D3). Put plainly: affinity purification with mass spectrometry; lysate (150 mM NaCl, 10 mM HEPES pH 7.4, 1% NP-40) precipitated with anti-OTUD3 antibody and protein G agarose overnight at 4 °C; SDS-PAGE, silver stain, MS; cell line not named.

Turning to “DDX3X, endogenous (from UniProt O00571 1-662)”, the binding entry was “binds”.
